Results taken from PubChem BioAssay AID624291 (National Center for Advancing Translational Sciences (NCATS), 2012).
Out of some 350,000 compounds screened, about 220 (0.063%) were called active. The inconclusive results got no clear call from the source; some entries with a clear call stand among them for comparison. The call rests on the fitted dose curve; in most records, active means well fitted activation curve with a large enough effect; inconclusive means small, poorly fitted or top-dose-only effect; inactive means no such curve, though single readings can be large or run the other way. Potencies beside an inconclusive call are fits to weak or partial responses and may not hold up.

Assay: qHTS for Activators of Integrin-Mediated Alleviation for Muscular Dystrophy; further: nearly all actives have a fitted effect of over 60% in size;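 on activation: 100% = response of the positive control SU9516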
Settings: alpha7betagal myoblasts, beta-gal FDG fluorescence, 48 h; activation: at 38.3 µM (top of the series)
How it was run: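 Alpha7betagal+/- myoblasts (passage 13) were plated 16-24 hr, then exposed to compounds (1:260 dilution of DMSO stock) for 48 hours at 37C. After MPER lysis, β-galactosidase reporter activity was read as FDG fluorescence (ex 480/em 540) after 30 minutes.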
Potency means the concentration at half of the fitted maximal effect.

Potency, inactive:
CC(=O)Nc1ccc(N(C(=O)Cn2nnc3ccccc32)C(C(=O)NC2CCCC2)c2ccc(O)c(O)c2)cc1 (stereo not drawn)
C=CCN(c1nc(C)c(Br)c(OC)n1)S(=O)(=O)c1ccc(C)cc1
CNC(=O)c1c(NC(=O)c2ccc(S(=O)(=O)N(C)c3ccccc3)cc2)sc2c1CCN(C(C)C)C2
CN(C)C(CNC(=S)Nc1ccccc1Cl)c1cccnc1 (stereo not drawn)
CCOc1cccc(-c2cc(C(=O)NN)[nH]n2)c1
CCn1cc(C(=O)O)c(=O)c2cc(F)c(N3CCN(C(=S)NC(=O)c4ccc(Br)cc4)CC3)cc21
CC(C)C[C@H](NC(=O)OC(C)(C)C)C(=O)N/N=C/C1=Cc2ccccc2OC1C (stereo partly drawn)
Cc1ccc(-n2nc(C)cc2Nc2ncc(Cl)cc2Cl)cc1
CCCCn1nc(C(=O)Oc2ccc3c(C)cc(=O)oc3c2)c2ccccc2c1=O
CCN(C(=O)COC(=O)CCC(=O)c1cccs1)c1ccccc1
Cc1cc(NC(=O)c2cc(-c3cccs3)on2)no1
COc1ccc(C(=O)NC(=S)Nc2ccc(S(N)(=O)=O)cc2)cc1
CCOC(=O)c1c(NC(=O)C(C)OC(=O)C2=COCCO2)sc2c1CCCC2 (stereo not drawn)

Potency, inconclusive:
COc1ccc(/C=C/S(=O)(=O)NCc2ccccc2)cc1OC 3.55 µM [activator, single point]
CSc1ccc(C2NC(=O)c3ccccc3N2)cc1 (stereo not drawn) 0.891 µM [activator, full curve, poor fit]
CS(=O)(=O)N1CCN(c2ccc([N+](=O)[O-])cc2F)CC1 10 µM [activator, partial curve, poor fit]
CC(C)(O)C#Cc1ccc(C(=O)N2CCCC(CCC(=O)NCc3ccccc3F)C2)cc1 (stereo not drawn) 2.82 µM [activator, single point]
CCOC(=O)N1CCN(S(=O)(=O)c2c(C)cc(C)cc2C)CC1 5.01 µM [activator, single point]
CCOc1ccccc1NC(=O)NCCc1c[nH]c2ccccc12 5.01 µM [activator, single point]
COc1ccc(NC(=O)NCCN2CCCCC2)cc1 17.8 µM [activator, single point]
O=C(c1ccc(Cl)cc1)c1cnc(Nc2ccccc2Cl)s1 10 µM [activator, partial curve, poor fit]
COc1cccc(N2CCN(C(=O)CCS(=O)(=O)c3ccc4c(c3)oc(=O)n4C)CC2)c1 3.98 µM [activator, partial curve, poor fit]
CCOc1ccc(C(=O)Nc2cccc(-c3ccc4nncn4n3)c2)cc1 28.2 µM [activator, single point]
CCc1ccc(N(C(=O)c2csnn2)C(C(=O)NC2CCCC2)c2cccnc2)cc1 (stereo not drawn) 15.8 µM [activator, single point]
COc1cccc2cc(-c3nc4ccccc4[nH]3)c(=O)oc12 25.1 µM [activator, partial curve, poor fit]
CC(=O)NS(=O)(=O)c1ccc(NC(=O)CSc2ccccc2)cc1 3.55 µM [activator, single point]
O=C(NC1CCCC1)C(c1c[nH]c2ccccc12)N(C(=O)Cn1nnc(-c2ccc(Cl)cc2)n1)c1ccccc1 (stereo not drawn) 10 µM [activator, partial curve, poor fit]
CN(CC(=O)NCCc1ccc(S(N)(=O)=O)cc1)Cc1ccc(Cl)cc1Cl 5.01 µM [activator, single point]
O=c1cc(C(F)(F)F)[nH]c2ccccc12 3.16 µM [activator, full curve, poor fit]
Cc1ccc(NC(=O)CN(C)C(=O)c2ccc(C(F)(F)F)cc2)cc1 10 µM [activator, single point]
O=C(O)c1ccc(OCc2cn3ccccc3n2)cc1 4.47 µM [activator, single point]
CS(=O)(=O)c1ccc(Cl)c(C(=O)NCC2CCCCC2)c1 5.62 µM [activator, partial curve, poor fit]
CC1CCN(c2nc3c(N)ncnc3n2[C@@H]2O[C@H](CO)[C@@H](O)[C@H]2O)CC1 20 µM [activator, single point]
CCOC(=O)CC(NC(=O)c1ccc(C)cc1)c1ccc(OC)cc1 (stereo not drawn) 5.01 µM [activator, single point]
COc1ccc(CCNC(=O)c2ccc(N(C)S(=O)(=O)c3ccc(C)cc3)cc2)cc1 10 µM [activator, partial curve, poor fit]
CSc1ccccc1-c1nc(-c2ccncc2)no1 2 µM [activator, single point]
O=C1C(=O)N(CCN2CCOCC2)C(c2cccc(Cl)c2)/C1=C(\O)c1ccc2c(c1)OCCO2 (stereo not drawn) 1 µM [activator, full curve, poor fit]
O=C(OCc1ccccc1)/C(=C/c1cccc2ccccc12)NC(=O)c1ccccc1 5.62 µM [activator, partial curve, poor fit]
CC(C)(C)C(=O)Nc1cccc(-c2nnc(-c3cccc(NC(=O)C(C)(C)C)c3)o2)c1 31.6 µM [activator, single point]
O=C(Cc1ccccc1)Nc1ccc(N2CCOCC2)cc1 5.01 µM [activator, partial curve, poor fit]
CC(C)(C)NC(=O)N1CCCN(c2ccc(C(F)(F)F)cn2)CC1 3.16 µM [activator, single point]
Cc1ccc(C(=O)NCC(=O)N2CCCCCCC2)cc1C 28.2 µM [activator, single point]

A run of entries from further up, for reference:
Potency, inconclusive:
O=C(O)c1ccc(OCc2cn3ccccc3n2)cc1 4.47 µM [activator, single point]
CS(=O)(=O)c1ccc(Cl)c(C(=O)NCC2CCCCC2)c1 5.62 µM [activator, partial curve, poor fit]

Following part:

activation, inconclusive:
O=C(Nc1cc(Cl)cc2c1-c1ccc(Cl)cc1C2O)C(Cl)Cl (stereo not drawn) -41.6% [activator]
